Assay results taken from paper PMC12040169 (PLOS Biology, 2025).

Assay: in vitro
Conditions: human, hela cells, % viability

Compound | viability at 28.5 h, 10 µM
CCN1CCN(C(=O)c2cc3ccccc3[nH]2)CC1 [CBK200247] | 89.2%
O=C(c1cccc([N+](=O)[O-])c1)C12CN3CN(CN(C3)C1)C2 [CBK261142] | 98.6%
Cc1ccccc1NC(=O)CCC(=O)N/N=C/c1cccnc1 [CBK261970] | 90.7%
